Laboratory results as given in PubChem BioAssay AID493014 (National Center for Advancing Translational Sciences (NCATS), 2011).
Some of the results follow. These are further read-outs of the screen, such as a control signal, another cell line or another target. No call is given for them. Most of these compounds were active or inconclusive in the main read-out, so they are no random draw. The note in brackets gives the kind of curve behind each potency; many fits are weak.

Experiment: qHTS Assay to Find Inhibitors of Chronic Active B-Cell Receptor Signaling
Details: ABC-DLBCL IkBa-CBG/CBR reporter, luminescence ratio (green luciferase fused to IkBa over red control in TMD8 lymphoma cells), 4 h
In short: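 Doxycycline induced both beetle luciferases in TMD8 lymphoma cells; IKK-driven degradation limits the IkappaBalpha-fused green signal, while red luminescence normalises for cell number and nonspecific effects. Compounds tested up to 46 uM, 4 hrs.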

[1] = measured here: CBR red luminescence, cell number
[2] = measured here: IkBa-CBG green luminescence

Row | SMILES | AC50 [1] | AC50 [2]
1 | CCOc1ccc(NC(=O)CN(C)CC(=O)NC2CCCc3ccccc32)cc1OCC (centres undefined) | 29.1 µM [falling, single point] | 
2 | Cc1cccc(-c2cc3nc4c(c(N5CCCC(O)C5)n3n2)CCC4)c1 (centres undefined) | 3.16 µM [falling, partial curve, poor fit] | 
3 | Cc1sc(NC(=O)CSc2nnc(COc3ccc(Cl)cc3)n2C)c(C#N)c1C | 14.1 µM [rising, partial curve] | 
4 | COc1ccc(N/C=C(\[N+](=O)[O-])S(=O)(=O)c2ccccc2)cc1 | 35.5 µM [falling, single point] | 
5 | [O-]/C(=C(\C(=S)Nc1cccc2ccccc12)[n+]1ccccc1)c1ccc(OC(F)F)cc1 | 3.55 µM [falling, partial curve, poor fit] | 
6 | COc1cc(OCC(=O)NC(C)C)cc2c1C(=O)O[C@@H](C)CCCC(=O)CCCCC2 | 11.2 µM [rising, single point] | 
7 | Cc1cccc(-c2nnc(-c3cccc(NC(=O)Cc4cccs4)c3)o2)c1 | 2.82 µM [rising, partial curve, poor fit] | 
8 | CCn1cc(CN2CCc3c([nH]c4ccccc34)C2c2cccc(OC)c2OC)c(C)n1 (centres undefined) | 10 µM [falling, partial curve, poor fit] | 
9 | Cc1cccc(-c2cc3c(N=O)c4ccccc4c-3n[nH]2)c1 | 1.78 µM [falling, full curve, poor fit] | 
10 | COc1ccc(/C=N\NC(=O)c2ccccc2Cl)cc1COc1c(F)c(F)c(F)c(F)c1F | 3.55 µM [falling, partial curve, poor fit] | 
11 | Cc1cccc(/C=C/c2nc3ccccc3c(=O)[nH]2)c1 |  | 3.16 µM [rising, full curve, poor fit]
12 | CCNc1ccc(S(=O)(=O)N(C)C)cc1NCC(=O)Nc1ccc(Br)cc1F | 29.1 µM [falling, single point] | 
13 | CC[C@@]12C(=O)N(c3cccc(F)c3)C(=O)N1[C@H](c1ccc(F)cc1)[C@@H]1C(=O)N(C3CCCCC3)C(=O)[C@@H]12 | 10 µM [falling, partial curve] | 
14 | O=C(COc1ccc(Cl)cc1Cl)NCc1ccco1 | 1.41 µM [rising, full curve, poor fit] | 
15 | COc1ccc(CCN2C(=O)CSC2=Nc2ccc(C(C)C)cc2)cc1OC | 35.5 µM [falling, single point] | 
16 | Cc1c(C(=O)N2CCC(C)CC2)sc2ncnc(N(C)c3ccccc3)c12 | 6.51 µM [rising, single point] | 
17 | CSc1ccccc1N=Cc1nc(-c2ccccc2)oc1O | 20 µM [falling, partial curve, poor fit] | 
18 | Cc1cc(-c2nn(-c3ccccc3F)cc2CN(C)CC(O)CO)c(C)s1 (centres undefined) | 4.47 µM [rising, full curve] | 
19 | Cc1ccc(-n2ncc3c(NCC4CCCO4)ncnc32)c(C)c1 (centres undefined) | 4.11 µM [rising, full curve, poor fit] | 
20 | COc1ccc(-c2cc3cc(OC)c(OC)cc3c(C)n2)cc1 | 0.355 µM [rising, full curve, poor fit] | 
21 | COc1ccc(/C=N/NC(=O)c2ccn[nH]2)cc1CSc1ccccn1 | 11.2 µM [falling, partial curve, poor fit] | 

Row | SMILES | AC50 [1] | AC50 [2]
22 | O=C(NC1CCCCC1)C(c1ccncc1)N(Cc1ccccc1)C(=O)c1ccc(-c2ccccc2)[nH]1 (centres undefined) | 35.5 µM [falling, single point] | 
23 | Fc1ccccc1/C=N/NC(=S)Nc1ccc(Cl)cc1Cl | 10.3 µM [rising, partial curve, poor fit] | 
24 | O=C(OCC1COc2ccccc2O1)c1ccccc1F (centres undefined) | 3.16 µM [rising, partial curve, poor fit] | 
25 | COCCNc1c(-c2ccc(OC)c(OC)c2)nc2ccc(Cl)cn12 | 3.55 µM [rising, single point] | 
26 | Cc1cc(=O)c2cc(Br)ccc2[nH]1 | 16.4 µM [falling, single point] | 
27 | O=C(NN=C1CCCC1)c1cc(Cl)cc(Cl)c1O | 2 µM [falling, full curve] | 
28 | CC(=O)N1c2ccc(S(=O)(=O)N3CCCCC3)cc2CC1C (centres undefined) | 5.62 µM [rising, full curve, poor fit] | 
29 | CCS(=O)(=O)N1CCN(c2ccccn2)CC1 | 29.1 µM [falling, single point] | 
30 | CC1=NN(C(N)=S)C(=O)C1N=Nc1cccc([N+](=O)[O-])c1 (centres undefined) |  | 0.631 µM [falling, full curve, poor fit]
31 | O=C(O)CCCc1ccc2ccc3cccc4ccc1c2c34 | 1.26 µM [falling, full curve] | 0.631 µM [rising, full curve]
32 | Cc1cccc2c1ncc1c(=O)n(-c3ccccc3)[nH]c12 | 7.94 µM [falling, partial curve, poor fit] | 
33 | COc1ccc(/C=N/NC(=O)c2ccc3c(c2)OCO3)cc1 | 4.47 µM [falling, partial curve] | 
34 | Fc1ccc(/C=C2\CCCC3=C2Nc2ncnn2C3c2ccc(F)cc2)cc1 (centres undefined) | 6.31 µM [falling, partial curve] | 
35 | O=C(OCc1ccc(O)cc1)c1c(-c2ccsc2)oc2ccc(N3CCOCC3)cc12 | 3.55 µM [falling, full curve] | 
36 | O=C(OCC(=O)N1CCCC1)c1cncc(Br)c1 | 0.731 µM [rising, full curve, poor fit] | 
37 | CCN(CC)CCCOC(=O)C(c1ccccc1)c1ccccc1 | 4.47 µM [falling, partial curve, poor fit] | 
38 | COc1ccc(/C=C/C(=O)OCC(=O)c2c(C)[nH]c3ccccc23)cc1OC | 10.3 µM [rising, partial curve, poor fit] | 
39 | COc1ccc(OC)c(S(=O)(=O)N2CCCCC2C(=O)O)c1 (centres undefined) | 6.51 µM [falling, single point] | 
40 | O=c1c2ccccc2n2c(=S)[nH]nc2n1-c1ccccc1 | 20 µM [rising, partial curve, poor fit] | 
41 | CCn1ncc(/C=C/C(=O)Nc2c(C)nn(Cc3ccc(Cl)cc3Cl)c2C)c1C | 35.5 µM [falling, single point] | 
42 | CCC(Sc1nc2c(sc3ccccc32)c(=O)n1CCc1ccc(OC)c(OC)c1)C(=O)N(CC)CC (centres undefined) | 5.01 µM [falling, full curve] | 

Row | SMILES | AC50 [1] | AC50 [2]
43 | COc1ccc(NC(=O)CSc2nnc(Cn3nnc4ccccc43)n2C)cc1 | 6.51 µM [falling, single point] | 
44 | O=c1nc(-c2ccccc2)cn[nH]1 | 12.6 µM [falling, partial curve, poor fit] | 
45 | O=C(NC1CCCCC1)c1ccc2c(c1)OCCO2 | 6.31 µM [falling, partial curve, poor fit] | 
46 | CC[C@]12c3[nH]c4ccc(Cl)cc4c3CCN1C(=O)[C@@H](CC(=O)NCCc1ccccn1)C[C@@H]2C(=O)N1CCN(C(=O)C2CC2)CC1 | 25.9 µM [rising, single point] | 
47 | CC(C)CC(=O)n1sc(NC(=O)c2ccccc2)nc1=O | 7.08 µM [falling, partial curve, poor fit] | 
48 | CC(OC(=O)c1ccc(Cl)c([N+](=O)[O-])c1)C(=O)N1CCN(Cc2ccccc2)CC1 (centres undefined) | 29.1 µM [falling, single point] | 
49 | CCCCCN(C(=O)CCC(=O)OC(C)C(=O)NC1CCCCC1)c1c(N)n(CCCC)c(=O)[nH]c1=O (centres undefined) | 4.61 µM [falling, partial curve, poor fit] | 
50 | O=C1NCC(c2ccccc2)C1C(=O)N/N=C\c1ccc(-c2cccc(Cl)c2Cl)o1 (centres undefined) | 9.2 µM [falling, partial curve, poor fit] | 
51 | COc1ccc(S(=O)(=O)Nc2nccs2)cc1OC | 35.5 µM [rising, single point] | 
52 | O=[N+]([O-])c1ccc(N2N=C(c3ccccc3)CC2c2ccccc2O)cc1 (centres undefined) | 28.2 µM [falling, single point] | 
53 | CCOc1ccc(-c2nc(C#N)c(N3CCN(C)CC3)o2)cc1 | 20.6 µM [rising, partial curve, poor fit] | 
54 | CCOc1ccc(NS(=O)(=O)CC23CCC(CC2=O)C3(C)C)cc1 (centres undefined) | 32.6 µM [falling, single point] | 
55 | O=C(N/N=C/c1coc2ccccc2c1=O)c1cc2ccccc2o1 | 16.4 µM [falling, partial curve] | 
56 | CN(C)c1cc[n+](CC(=O)c2ccc(OC(F)F)cc2)cc1 | 0.794 µM [rising, full curve, poor fit] | 
57 | CCOC(=O)N1CCN(C(=O)CS(=O)Cc2nc(-c3cccc(C)c3)oc2C)CC1 (centres undefined) | 6.51 µM [falling, single point] | 
58 | Fc1ccccc1NC(=S)N(CCN1CCCCCC1)Cc1cccs1 | 35.5 µM [falling, partial curve, poor fit] | 
59 | O=C(Nc1cc(C(F)(F)F)ccc1Cl)C(Sc1cccc[n+]1[O-])c1ccccc1 (centres undefined) | 29.1 µM [falling, single point] | 29.1 µM [falling, single point]
60 | Cc1cc(NC(=O)COC(=O)c2cccc(S(=O)(=O)N(C)C3CCCCC3)c2)no1 | 5.62 µM [rising, single point] | 
61 | CCOc1ccc(C2c3c(oc4ccccc4c3=O)C(=O)N2CCCN2CCOCC2)cc1 (centres undefined) | 29.1 µM [rising, single point] | 
62 | COC(=O)C1C(=O)C2=C(CC1C)NC(C)=C(C(=O)OCCOc1ccccc1)C2c1ccc(C)o1 (centres undefined) | 29.1 µM [falling, single point] | 

Part of the list above, as a markdown table:

| Row | SMILES | AC50 [1] | AC50 [2] |
| --- | --- | --- | --- |
| 48 | CC(OC(=O)c1ccc(Cl)c([N+](=O)[O-])c1)C(=O)N1CCN(Cc2ccccc2)CC1 (centres undefined) | 29.1 µM [falling, single point] |  |
| 49 | CCCCCN(C(=O)CCC(=O)OC(C)C(=O)NC1CCCCC1)c1c(N)n(CCCC)c(=O)[nH]c1=O (centres undefined) | 4.61 µM [falling, partial curve, poor fit] |  |
| 50 | O=C1NCC(c2ccccc2)C1C(=O)N/N=C\c1ccc(-c2cccc(Cl)c2Cl)o1 (centres undefined) | 9.2 µM [falling, partial curve, poor fit] |  |
| 51 | COc1ccc(S(=O)(=O)Nc2nccs2)cc1OC | 35.5 µM [rising, single point] |  |
| 52 | O=[N+]([O-])c1ccc(N2N=C(c3ccccc3)CC2c2ccccc2O)cc1 (centres undefined) | 28.2 µM [falling, single point] |  |
| 53 | CCOc1ccc(-c2nc(C#N)c(N3CCN(C)CC3)o2)cc1 | 20.6 µM [rising, partial curve, poor fit] |  |
| 54 | CCOc1ccc(NS(=O)(=O)CC23CCC(CC2=O)C3(C)C)cc1 (centres undefined) | 32.6 µM [falling, single point] |  |
| 55 | O=C(N/N=C/c1coc2ccccc2c1=O)c1cc2ccccc2o1 | 16.4 µM [falling, partial curve] |  |
| 56 | CN(C)c1cc[n+](CC(=O)c2ccc(OC(F)F)cc2)cc1 | 0.794 µM [rising, full curve, poor fit] |  |
| 57 | CCOC(=O)N1CCN(C(=O)CS(=O)Cc2nc(-c3cccc(C)c3)oc2C)CC1 (centres undefined) | 6.51 µM [falling, single point] |  |
| 58 | Fc1ccccc1NC(=S)N(CCN1CCCCCC1)Cc1cccs1 | 35.5 µM [falling, partial curve, poor fit] |  |
| 59 | O=C(Nc1cc(C(F)(F)F)ccc1Cl)C(Sc1cccc[n+]1[O-])c1ccccc1 (centres undefined) | 29.1 µM [falling, single point] | 29.1 µM [falling, single point] |
| 60 | Cc1cc(NC(=O)COC(=O)c2cccc(S(=O)(=O)N(C)C3CCCCC3)c2)no1 | 5.62 µM [rising, single point] |  |
| 61 | CCOc1ccc(C2c3c(oc4ccccc4c3=O)C(=O)N2CCCN2CCOCC2)cc1 (centres undefined) | 29.1 µM [rising, single point] |  |
| 62 | COC(=O)C1C(=O)C2=C(CC1C)NC(C)=C(C(=O)OCCOc1ccccc1)C2c1ccc(C)o1 (centres undefined) | 29.1 µM [falling, single point] |  |
